{"source": "patent US20240261426A1", "about": "“CONJUGATES COMPRISING PHOSPHOANTIGENS AND THEIR USE IN THERAPY” (BYONDIS B.V., priority 2021, published 2024)", "tested_on": "Raji cells", "assay": "Direct compound-related cell death (CellTiter-Glo, 6 days)", "format": "cell-based, human", "settings": "6 days incubation, concentration range", "method": "Metabolic activity was assessed after 6 days, using the CellTiter-Glo™ (CTG) luminescent assay kit from Promega Corporation (Madison, WI) according to the manufacturer's instructions. Cell viability was expressed as the percentage survival relative to the average mean of untreated cells or vehicle-treated cells (only growth medium or 1% DMSO) multiplied with 100. The efficacy was calculated by subtracting the bottom of the dose response curve (DRC) from 100%.", "note": "Some of these results come from one statement about several compounds together."}
{"smiles": "O=P(O)(O)C(O)(Cn1ccnc1)P(=O)(O)O", "note": "[zoledronate]", "values": [{"measurement": "direct compound related cell death", "value": "≤ 15", "unit": "%"}]}
